Laboratory results reported in publication PMC9532951, “Identification and characterization of a novel SNAT2 (SLC38A2) inhibitor reveals synergy with glucose transport inhibition in cancer cells” (Frontiers in Pharmacology, 2022).
Where “and” joins values, the source holds several entries; their conditions need not be identical. Equal entries are not always repeated. This continues a long series; more values of the same kind are listed elsewhere.

Tested on: SNAT1/2
Test: FMP assay: depolarisation by amino acid substrates in amino acid depleted HCC1806 cells
Assay type: cell-based, human
Experimental: The FLIPR Membrane Potential Blue Explorer Kit (Molecular Devices) was used to characterise inhibitors and to optimise a high-throughput compound screen. Cells were seeded at approximately 60,000 cells/well on a 96-well plate and allowed to attach and grow overnight in a cell incubator. […] Cells were then washed once with mHBSS and incubated with 50 µl of the mHBSS-resuspended FMP assay dye and 50 µl of mHBSS (with or without inhibitors) and incubated at room temperature for 30 min. The plate was then placed in an EnSpire Multimode plate reader (PerkinElmer) and four sequential measurements of fluorescence were recorded as a baseline reference. Immediately after the baseline measurements were taken, 25 µl of 5 mM glutamine dissolved in mHBSS was injected into each well and the plate was shaken orbitally for 5 s before a series of consecutive fluorescence measurements were taken. The excitation wavelength was set to 530 nm and the emission was detected at 565 nm. […] After the assay was complete, the liquid content of the plate was carefully removed, and the cell monolayer inspected to ensure it remained intact throughout the course of the assay.

Question: What does the source list for NC(=O)CC[C@H](N)C(=O)O [Glutamine, glutamine]?
Answer: FMP fluorescence reading (amino acid 1 mM final, t=0 s): 55265 and 57234 and 43363; FMP fluorescence reading (amino acid 1 mM final, t=15 s): 99640 and 105103 and 91523; FMP fluorescence reading (amino acid 1 mM final, t=30 s): 105671 and 110267 and 95206; FMP fluorescence reading (amino acid 1 mM final, t=45 s): 110250 and 114911 and 97441; FMP fluorescence reading (amino acid 1 mM final, t=60 s): 114028 and 117820 and 99608; FMP fluorescence reading (amino acid 1 mM final, t=75 s): 116240 and 119431 and 100452; FMP fluorescence reading (amino acid 1 mM final, t=90 s): 118472 and 121213 and 100570; FMP fluorescence reading (amino acid 1 mM final, t=105 s): 119889 and 121546 and 101339; FMP fluorescence reading (amino acid 1 mM final, t=120 s): 120223 and 122455 and 100682; FMP fluorescence reading (amino acid 1 mM final, t=135 s): 120424 and 122015 and 100479; FMP fluorescence reading (amino acid 1 mM final, t=-15 s): 55644 and 57261 and 43139; FMP fluorescence reading (amino acid 1 mM final, t=-30 s, replicates 1-3): 55434 and 57450 and 43367; FMP fluorescence reading (glutamine 0.01mM, t=0 s): 66215 and 65024 and 66732; FMP fluorescence reading (glutamine 0.01mM, t=15 s): 68981 and 67242 and 69177; FMP fluorescence reading (glutamine 0.01mM, t=30 s): 68740 and 68354 and 69059; FMP fluorescence reading (glutamine 0.01mM, t=45 s): 68835 and 68642 and 69775; FMP fluorescence reading (glutamine 0.01mM, t=120 s): 69704 and 70034 and 70486; FMP fluorescence reading (glutamine 0.01mM, t=135 s): 70142 and 69864 and 70651; FMP fluorescence reading (glutamine 0.01mM, t=-15 s): 66333 and 65865 and 67292; FMP fluorescence reading (glutamine 0.01mM, t=-30 s): 67800 and 66826 and 67392; FMP fluorescence reading (glutamine 0.03mM (c24-c26), t=0 s): 67482 and 69910 and 73977; FMP fluorescence reading (glutamine 0.03mM (c24-c26), t=15 s): 77008 and 79804 and 81995; FMP fluorescence reading (glutamine 0.03mM (c24-c26), t=30 s): 76301 and 79843 and 82364; FMP fluorescence reading (glutamine 0.03mM (c24-c26), t=45 s): 76830 and 80238 and 83473; FMP fluorescence reading (glutamine 0.03mM (c24-c26), t=120 s): 78392 and 82423 and 85112; FMP fluorescence reading (glutamine 0.03mM (c24-c26), t=135 s): 78240 and 82097 and 85813; FMP fluorescence reading (glutamine 0.03mM (c24-c26), t=-15 s): 68231 and 70451 and 74293; FMP fluorescence reading (glutamine 0.03mM (c24-c26), t=-30 s): 69790 and 71409 and 75110; FMP fluorescence reading (glutamine 0.03mM (last group, c32-c34), t=0 s): 64896 and 71130 and 70601; FMP fluorescence reading (glutamine 0.03mM (last group, c32-c34), t=15 s): 63644 and 69883 and 70816; FMP fluorescence reading (glutamine 0.03mM (last group, c32-c34), t=30 s): 63367 and 69517 and 70927; FMP fluorescence reading (glutamine 0.03mM (last group, c32-c34), t=45 s): 63632 and 69691 and 70477; FMP fluorescence reading (glutamine 0.03mM (last group, c32-c34), t=120 s): 64400 and 70855 and 71312; FMP fluorescence reading (glutamine 0.03mM (last group, c32-c34), t=135 s): 64630 and 71114 and 71588; FMP fluorescence reading (glutamine 0.03mM (last group, c32-c34), t=-15 s): 65794 and 71804 and 71241; FMP fluorescence reading (glutamine 0.03mM (last group, c32-c34), t=-30 s): 66933 and 72549 and 72536; FMP fluorescence reading (glutamine 0.1mM, t=0 s): 65099 and 69734 and 72884; FMP fluorescence reading (glutamine 0.1mM, t=15 s): 85390 and 92235 and 93443; FMP fluorescence reading (glutamine 0.1mM, t=30 s): 85934 and 93652 and 95056; FMP fluorescence reading (glutamine 0.1mM, t=45 s): 87649 and 95641 and 96965; FMP fluorescence reading (glutamine 0.1mM, t=120 s): 92360 and 99218 and 101114; FMP fluorescence reading (glutamine 0.1mM, t=135 s): 92822 and 99808 and 101354; FMP fluorescence reading (glutamine 0.1mM, t=-15 s): 65493 and 69983 and 73162; FMP fluorescence reading (glutamine 0.1mM, t=-30 s): 66543 and 70613 and 73701; FMP fluorescence reading (glutamine 0.3mM, t=0 s): 63230 and 68101 and 73092; FMP fluorescence reading (glutamine 0.3mM, t=15 s): 94722 and 99977 and 102997; FMP fluorescence reading (glutamine 0.3mM, t=30 s): 95486 and 103375 and 106040; FMP fluorescence reading (glutamine 0.3mM, t=45 s): 97739 and 105827 and 109624; FMP fluorescence reading (glutamine 0.3mM, t=120 s): 102721 and 112486 and 115660; FMP fluorescence reading (glutamine 0.3mM, t=135 s): 102824 and 112256 and 116184; FMP fluorescence reading (glutamine 0.3mM, t=-15 s): 63460 and 68717 and 73527; FMP fluorescence reading (glutamine 0.3mM, t=-30 s): 64636 and 69388 and 73893; FMP fluorescence reading (glutamine 1mM, t=0 s): 64957 and 68914 and 75196; FMP fluorescence reading (glutamine 1mM, t=15 s): 102506 and 107666 and 117982; FMP fluorescence reading (glutamine 1mM, t=30 s): 106597 and 112096 and 122847; FMP fluorescence reading (glutamine 1mM, t=45 s): 109985 and 116885 and 125847; FMP fluorescence reading (glutamine 1mM, t=135 s): 119060 and 127291 and 135312; FMP fluorescence reading (glutamine 1mM, t=-15 s): 66108 and 69945 and 76018; FMP fluorescence reading (glutamine 1mM, t=-30 s): 67506 and 70513 and 76707; FMP fluorescence reading (glutamine 3mM, t=0 s): 71663 and 68445 and 71255; FMP fluorescence reading (glutamine 3mM, t=15 s): 117875 and 110129 and 113705; FMP fluorescence reading (glutamine 3mM, t=30 s): 124251 and 115455 and 120082; FMP fluorescence reading (glutamine 3mM, t=45 s): 129371 and 120106 and 125123; FMP fluorescence reading (glutamine 3mM, t=120 s): 132146 and 137891; FMP fluorescence reading (glutamine 3mM, t=135 s): 141472 and 132355 and 138466; FMP fluorescence reading (glutamine 3mM, t=-15 s): 72061 and 68571 and 72428; FMP fluorescence reading (glutamine 3mM, t=-30 s): 72855 and 69592 and 73406; FMP fluorescence reading (glutamine 10mM, t=0 s): 70338 and 70210 and 71665; FMP fluorescence reading (glutamine 10mM, t=15 s): 107298 and 115961 and 116003; FMP fluorescence reading (glutamine 10mM, t=30 s): 113210 and 122593 and 123254; FMP fluorescence reading (glutamine 10mM, t=45 s): 119118 and 128022 and 129115; FMP fluorescence reading (glutamine 10mM, t=120 s): 134666 and 142907 and 144218; FMP fluorescence reading (glutamine 10mM, t=135 s): 136398 and 144190 and 144688; FMP fluorescence reading (glutamine 10mM, t=-15 s): 70457 and 71078 and 72093; FMP fluorescence reading (glutamine 10mM, t=-30 s): 72656 and 71410 and 72899
